PubChem BioAssay AID1259308 – NCATS, 2017
This is a random part of about 59,000 reagents. About 1,510 of all reagents (2.6%) were called active. 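Calls use total luciferase alone and ignore viability, so some active siRNAs may act by altering cell number.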 Reagents against one gene are numbered here. Further read-outs or replicates are left out here.

- Purpose: 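Genes whose loss raises luciferase production in HEK293 cells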 (primary screen)
- System: human HEK293 embryonic kidney cells stably expressing firefly luciferase (HEK-CMV-Luc2-Hygro)
- Reagent: single siRNA against human genes, 0.8 pmol siRNA per well
- Duration: 72 h
- Measured: 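Reporter luminescence and viable-cell signal on separate replicate plates, given as percent of non-targeting control and median/MAD z-scores, plus per-cell luciferase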
- Direction: total luciferase, z-score: higher = more reporter protein produced
- Hit rule: 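An siRNA counts as active if its total luciferase robust z-score exceeds 3; genes with two or more such siRNAs out of three were retested with fresh siRNAs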
- Meaning of the calls: active = raised luciferase; inactive = no rise

Depletion of SAP130 #1 resulted in: total luciferase, z-score -0.183; inactive.
Knock-down of SAP130 #2 resulted in: total luciferase, z-score 1.2; inactive.
SAP130 #3 gave total luciferase, z-score -1.69; inactive.
For LMO7 #1 the deposit lists total luciferase, z-score 3.74; active.
Against LMO7 #2, the entry reads total luciferase, z-score 2.02; inactive.
LMO7 #3 gave total luciferase, z-score 0.0137; inactive.
After knock-down of FAM184B #1, the screen gave total luciferase, z-score -1.3; inactive.
Depletion of FAM184B #2 gave: total luciferase, z-score 0.406; inactive.
Knock-down of FAM184B #3 resulted in: total luciferase, z-score -0.358; inactive.
With knock-down of CHMP6 #1, the screen gave total luciferase, z-score 0.585; inactive.
Depletion of CHMP6 #2 came out at: total luciferase, z-score 2.63; inactive.
After knock-down of CHMP6 #3 the results were total luciferase, z-score -0.684; inactive.
Silencing of OR2T11 #1 gave: total luciferase, z-score -0.0181; inactive.
Knock-down of OR2T11 #2 resulted in: total luciferase, z-score 2.93; inactive.
OR2T11 #3 gave total luciferase, z-score -2.6; inactive.

No new results follow: entries from further up.
SAP130 #2 → total luciferase, z-score: 1.2; Outcome: inactive
SAP130 #3 → total luciferase, z-score: -1.69; Outcome: inactive
LMO7 #1 → total luciferase, z-score: 3.74; Outcome: active
LMO7 #2 → total luciferase, z-score: 2.02; Outcome: inactive
LMO7 #3 → total luciferase, z-score: 0.0137; Outcome: inactive

Next results follow.
Silencing of AKAP4 #1 came out at: total luciferase, z-score 0.092; inactive.
After knock-down of AKAP4 #2, the record shows total luciferase, z-score -0.383; inactive.
For AKAP4 #3, the values are total luciferase, z-score -0.871; inactive.
After knock-down of ZNF202 #1, the record shows total luciferase, z-score -0.773; inactive.
After knock-down of ZNF202 #2 the results were total luciferase, z-score 0.39; inactive.
Against ZNF202 #3, the values are total luciferase, z-score -1.35; inactive.
After knock-down of SLTM #1, the screen gave total luciferase, z-score -0.0344; inactive.
SLTM #2 scored total luciferase, z-score -0.508; inactive.
SLTM #3 showed total luciferase, z-score 0.618; inactive.
Knock-down of NSRP1 #1 came out at: total luciferase, z-score 1.93; inactive.
NSRP1 #2 gave total luciferase, z-score 0.453; inactive.
After knock-down of NSRP1 #3, the screen gave total luciferase, z-score 2.53; inactive.
EOLA1 #1 scored total luciferase, z-score -0.332; inactive.
EOLA1 #2 gave total luciferase, z-score -0.0581; inactive.
For EOLA1 #3, the values are total luciferase, z-score 1.82; inactive.
EOLA1 #4 showed total luciferase, z-score 0.635; inactive.
Depletion of EOLA1 #5 resulted in: total luciferase, z-score 0.293; inactive.
Silencing of EOLA1 #6 gave: total luciferase, z-score 1.34; inactive.
